Assay [1] deals with human transferrin receptor 1 ectodomain, biotinylated (human) (UniProt P02786). The experiment in a line: yeast surface display, flow cytometry. On the technique in general: Flow cytometry measures light scatter and fluorescence of single cells or particles in a stream.
Assay [2] shares this target. Nature of the assay: yeast surface display, flow cytometry, 100,000 cells.
The target is the same in assay [3]. The experiment in a line: single concentration biolayer interferometry (1 µM design). For orientation: BLI is a label-free optical method that tracks binding on a fibre tip over time.

Results are given in words; binding and its absence hold for the method and conditions named. Some results given as binding are weak or reduced against the parent protein; the word gives no strength. For part of these data: Where a sequence is shown, tags or fusion partners need not be part of it.

B1: 2DS25 displayed on the yeast surface as Myc tagged Aga2p fusion protein (designed binder, not shown: large carriers; small tags and cut ends)
chain: DEEEIQKAIEELLRKGVSEEEAAIIIAQRFNVAVVVVVQDERQAKHISEYIRRYIPEADVILFANIVVIKVETEELRKRVWEAAQKAY
Consider B1, for which the binding result in assay [1] and in assay [2] was “binds” each time.

B2: 3DS4 (designed binder)
chain: DEEEEFKRRVQEYQEKYKNENDERDAEAALRAFNAVVVIVVRSEEEAERIAQEIRDRVPEAQVIIYNNLVVIRVDSREAAERVWKIAQEAL
With B2, the binding entry in assay [3] is “binds”.

The record behind these values is US20230272047A1.
